By UniProt entry, the sequences of proteins in these tests, tags left out. Where a name states a change or a piece, a line headed by the entry shows the natural chain unless it says otherwise. Residues count along the entry.
UniProt P21709, 26-976: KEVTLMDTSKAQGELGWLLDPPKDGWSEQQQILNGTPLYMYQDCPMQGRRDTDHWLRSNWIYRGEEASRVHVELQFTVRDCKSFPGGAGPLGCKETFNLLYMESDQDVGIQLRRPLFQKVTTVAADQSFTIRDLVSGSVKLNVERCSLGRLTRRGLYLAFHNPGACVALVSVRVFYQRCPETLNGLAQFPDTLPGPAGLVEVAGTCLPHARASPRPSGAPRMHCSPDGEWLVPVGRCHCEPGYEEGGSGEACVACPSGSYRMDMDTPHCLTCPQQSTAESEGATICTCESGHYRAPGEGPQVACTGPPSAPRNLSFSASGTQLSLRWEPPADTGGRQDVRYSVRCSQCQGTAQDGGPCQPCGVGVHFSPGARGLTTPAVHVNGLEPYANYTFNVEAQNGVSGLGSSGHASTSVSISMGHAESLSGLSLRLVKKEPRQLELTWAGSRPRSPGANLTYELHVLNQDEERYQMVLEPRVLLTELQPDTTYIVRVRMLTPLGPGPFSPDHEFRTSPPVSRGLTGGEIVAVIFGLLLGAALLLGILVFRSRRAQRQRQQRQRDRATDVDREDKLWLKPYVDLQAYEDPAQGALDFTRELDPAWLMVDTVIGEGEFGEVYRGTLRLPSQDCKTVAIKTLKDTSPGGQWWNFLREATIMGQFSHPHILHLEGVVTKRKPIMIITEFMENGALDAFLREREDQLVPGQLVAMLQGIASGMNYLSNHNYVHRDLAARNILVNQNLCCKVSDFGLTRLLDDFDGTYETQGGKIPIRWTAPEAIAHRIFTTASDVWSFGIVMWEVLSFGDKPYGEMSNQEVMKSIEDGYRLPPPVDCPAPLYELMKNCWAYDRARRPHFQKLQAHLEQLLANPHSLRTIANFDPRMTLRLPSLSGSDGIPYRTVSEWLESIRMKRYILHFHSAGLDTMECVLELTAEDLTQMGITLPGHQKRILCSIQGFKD
UniProt Q9HBH9: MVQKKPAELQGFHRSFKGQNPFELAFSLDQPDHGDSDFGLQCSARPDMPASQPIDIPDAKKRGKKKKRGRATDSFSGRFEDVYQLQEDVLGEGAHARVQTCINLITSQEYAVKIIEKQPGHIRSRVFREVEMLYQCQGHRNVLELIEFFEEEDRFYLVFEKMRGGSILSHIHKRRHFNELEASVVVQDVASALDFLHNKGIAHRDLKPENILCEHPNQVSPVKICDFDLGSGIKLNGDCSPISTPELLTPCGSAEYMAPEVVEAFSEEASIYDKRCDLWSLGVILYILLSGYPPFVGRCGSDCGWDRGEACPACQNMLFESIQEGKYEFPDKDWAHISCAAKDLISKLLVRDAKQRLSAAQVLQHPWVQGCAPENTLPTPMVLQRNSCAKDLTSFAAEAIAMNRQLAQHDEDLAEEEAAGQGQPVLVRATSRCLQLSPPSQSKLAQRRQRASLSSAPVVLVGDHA
UniProt P48426: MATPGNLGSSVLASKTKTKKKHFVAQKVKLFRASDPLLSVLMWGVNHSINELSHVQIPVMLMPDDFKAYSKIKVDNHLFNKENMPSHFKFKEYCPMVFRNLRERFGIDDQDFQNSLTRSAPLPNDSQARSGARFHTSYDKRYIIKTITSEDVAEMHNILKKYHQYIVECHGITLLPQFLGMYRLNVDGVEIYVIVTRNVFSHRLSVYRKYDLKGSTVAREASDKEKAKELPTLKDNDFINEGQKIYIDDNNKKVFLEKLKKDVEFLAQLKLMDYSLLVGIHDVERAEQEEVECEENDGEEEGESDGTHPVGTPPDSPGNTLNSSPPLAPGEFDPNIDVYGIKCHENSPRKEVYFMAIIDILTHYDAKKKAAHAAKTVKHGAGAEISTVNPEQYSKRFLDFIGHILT
UniProt P51617, whole entry: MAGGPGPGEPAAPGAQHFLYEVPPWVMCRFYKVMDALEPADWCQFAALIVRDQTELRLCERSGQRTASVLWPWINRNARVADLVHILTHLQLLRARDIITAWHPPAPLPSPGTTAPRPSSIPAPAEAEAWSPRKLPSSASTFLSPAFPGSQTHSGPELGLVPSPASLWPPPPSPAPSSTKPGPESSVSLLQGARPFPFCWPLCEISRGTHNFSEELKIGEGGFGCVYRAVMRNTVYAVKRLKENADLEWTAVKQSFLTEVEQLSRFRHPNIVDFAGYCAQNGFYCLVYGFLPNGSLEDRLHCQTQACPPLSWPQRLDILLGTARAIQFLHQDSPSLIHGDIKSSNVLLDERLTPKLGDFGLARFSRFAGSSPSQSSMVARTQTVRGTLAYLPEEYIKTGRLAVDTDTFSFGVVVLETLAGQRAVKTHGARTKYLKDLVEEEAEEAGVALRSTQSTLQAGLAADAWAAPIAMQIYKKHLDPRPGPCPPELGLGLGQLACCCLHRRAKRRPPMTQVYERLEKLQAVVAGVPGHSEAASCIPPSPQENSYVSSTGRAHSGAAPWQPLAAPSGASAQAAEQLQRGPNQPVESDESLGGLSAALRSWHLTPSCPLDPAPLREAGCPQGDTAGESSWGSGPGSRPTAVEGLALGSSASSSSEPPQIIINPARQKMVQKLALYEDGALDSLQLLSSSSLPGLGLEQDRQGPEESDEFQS
UniProt P54762, 18-984: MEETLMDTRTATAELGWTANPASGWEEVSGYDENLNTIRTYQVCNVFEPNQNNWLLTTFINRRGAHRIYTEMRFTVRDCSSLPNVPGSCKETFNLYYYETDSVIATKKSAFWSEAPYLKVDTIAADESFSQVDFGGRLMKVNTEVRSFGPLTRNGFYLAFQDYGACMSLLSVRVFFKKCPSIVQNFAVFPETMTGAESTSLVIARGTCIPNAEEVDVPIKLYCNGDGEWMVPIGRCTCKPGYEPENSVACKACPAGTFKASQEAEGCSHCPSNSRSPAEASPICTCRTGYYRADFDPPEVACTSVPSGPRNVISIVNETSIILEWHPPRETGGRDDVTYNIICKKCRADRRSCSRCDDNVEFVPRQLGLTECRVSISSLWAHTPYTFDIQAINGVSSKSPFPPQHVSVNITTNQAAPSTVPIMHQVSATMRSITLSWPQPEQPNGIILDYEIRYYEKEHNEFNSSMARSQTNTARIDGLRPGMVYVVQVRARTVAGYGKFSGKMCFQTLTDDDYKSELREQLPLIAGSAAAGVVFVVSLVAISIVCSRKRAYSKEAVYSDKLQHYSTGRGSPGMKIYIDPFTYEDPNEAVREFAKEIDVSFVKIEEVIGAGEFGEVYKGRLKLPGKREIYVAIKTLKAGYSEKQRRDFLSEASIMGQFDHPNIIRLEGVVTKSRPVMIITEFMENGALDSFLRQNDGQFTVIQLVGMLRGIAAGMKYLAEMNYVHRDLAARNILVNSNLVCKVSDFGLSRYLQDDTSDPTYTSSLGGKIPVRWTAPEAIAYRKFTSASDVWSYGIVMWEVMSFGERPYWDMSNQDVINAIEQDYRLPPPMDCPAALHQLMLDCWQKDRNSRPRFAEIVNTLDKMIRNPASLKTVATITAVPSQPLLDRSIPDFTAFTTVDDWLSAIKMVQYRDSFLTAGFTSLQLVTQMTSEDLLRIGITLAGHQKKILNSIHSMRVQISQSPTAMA
UniProt Q15418, whole entry: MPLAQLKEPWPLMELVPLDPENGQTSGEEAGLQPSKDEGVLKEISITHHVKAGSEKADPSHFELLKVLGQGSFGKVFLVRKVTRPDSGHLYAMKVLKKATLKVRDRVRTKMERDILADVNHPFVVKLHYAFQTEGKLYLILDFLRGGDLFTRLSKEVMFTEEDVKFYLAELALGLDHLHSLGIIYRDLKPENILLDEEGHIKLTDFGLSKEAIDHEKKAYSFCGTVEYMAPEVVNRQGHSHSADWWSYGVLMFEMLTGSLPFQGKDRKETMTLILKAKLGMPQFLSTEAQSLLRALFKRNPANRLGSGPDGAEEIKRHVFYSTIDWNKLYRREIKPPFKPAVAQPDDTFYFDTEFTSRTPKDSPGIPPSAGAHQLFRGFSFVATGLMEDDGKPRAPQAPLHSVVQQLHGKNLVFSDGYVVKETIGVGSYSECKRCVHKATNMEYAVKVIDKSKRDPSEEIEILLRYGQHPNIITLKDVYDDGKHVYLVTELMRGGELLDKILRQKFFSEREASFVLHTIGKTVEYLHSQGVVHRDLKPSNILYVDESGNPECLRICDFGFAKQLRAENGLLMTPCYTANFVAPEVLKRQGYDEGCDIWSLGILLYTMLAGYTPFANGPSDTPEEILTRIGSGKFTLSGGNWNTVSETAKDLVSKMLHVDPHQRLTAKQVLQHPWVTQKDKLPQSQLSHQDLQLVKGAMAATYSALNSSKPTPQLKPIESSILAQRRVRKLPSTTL
UniProt Q12851: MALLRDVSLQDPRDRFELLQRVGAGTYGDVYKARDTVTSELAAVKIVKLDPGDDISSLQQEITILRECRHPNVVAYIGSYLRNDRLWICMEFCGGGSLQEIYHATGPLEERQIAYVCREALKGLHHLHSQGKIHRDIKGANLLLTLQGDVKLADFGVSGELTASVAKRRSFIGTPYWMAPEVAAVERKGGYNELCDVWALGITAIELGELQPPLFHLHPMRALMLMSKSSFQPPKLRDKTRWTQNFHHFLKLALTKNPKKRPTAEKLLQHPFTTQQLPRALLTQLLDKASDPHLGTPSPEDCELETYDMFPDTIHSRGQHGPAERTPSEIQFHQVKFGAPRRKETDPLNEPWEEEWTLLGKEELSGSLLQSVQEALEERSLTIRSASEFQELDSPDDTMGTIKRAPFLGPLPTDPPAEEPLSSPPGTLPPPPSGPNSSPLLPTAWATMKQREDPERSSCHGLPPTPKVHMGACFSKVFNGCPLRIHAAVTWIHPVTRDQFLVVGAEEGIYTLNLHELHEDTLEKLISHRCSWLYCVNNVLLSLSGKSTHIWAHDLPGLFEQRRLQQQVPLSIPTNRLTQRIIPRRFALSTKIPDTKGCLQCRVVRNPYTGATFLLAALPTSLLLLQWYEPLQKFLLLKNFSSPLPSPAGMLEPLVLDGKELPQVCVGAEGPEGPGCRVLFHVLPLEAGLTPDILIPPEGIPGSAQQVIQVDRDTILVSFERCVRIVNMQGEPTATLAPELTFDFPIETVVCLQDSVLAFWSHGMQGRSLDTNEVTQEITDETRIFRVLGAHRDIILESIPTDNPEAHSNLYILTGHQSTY
UniProt O94804: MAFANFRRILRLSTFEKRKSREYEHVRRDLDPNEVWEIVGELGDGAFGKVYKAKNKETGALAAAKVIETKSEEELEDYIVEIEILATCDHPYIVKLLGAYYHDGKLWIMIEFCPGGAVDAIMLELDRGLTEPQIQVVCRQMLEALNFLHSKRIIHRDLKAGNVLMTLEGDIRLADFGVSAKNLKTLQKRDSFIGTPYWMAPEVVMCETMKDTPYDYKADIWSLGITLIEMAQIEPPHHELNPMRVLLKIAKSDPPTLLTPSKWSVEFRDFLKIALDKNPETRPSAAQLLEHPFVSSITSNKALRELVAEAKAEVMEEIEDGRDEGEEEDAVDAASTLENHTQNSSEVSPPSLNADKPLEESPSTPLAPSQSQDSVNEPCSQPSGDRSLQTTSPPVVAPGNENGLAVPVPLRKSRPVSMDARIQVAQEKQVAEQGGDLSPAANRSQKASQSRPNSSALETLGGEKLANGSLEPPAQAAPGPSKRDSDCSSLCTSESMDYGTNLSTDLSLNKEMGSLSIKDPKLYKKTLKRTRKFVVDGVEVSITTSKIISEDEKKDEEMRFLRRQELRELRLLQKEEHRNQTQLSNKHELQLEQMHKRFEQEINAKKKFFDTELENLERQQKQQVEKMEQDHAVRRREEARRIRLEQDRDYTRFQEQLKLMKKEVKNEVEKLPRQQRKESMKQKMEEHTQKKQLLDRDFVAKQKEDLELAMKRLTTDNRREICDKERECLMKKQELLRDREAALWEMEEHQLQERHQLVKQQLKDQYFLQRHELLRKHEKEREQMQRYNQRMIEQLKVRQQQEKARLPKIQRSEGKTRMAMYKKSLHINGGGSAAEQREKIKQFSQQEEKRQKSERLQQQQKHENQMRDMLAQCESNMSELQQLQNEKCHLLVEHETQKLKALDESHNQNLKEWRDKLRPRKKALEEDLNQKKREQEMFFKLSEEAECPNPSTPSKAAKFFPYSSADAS
UniProt P15735: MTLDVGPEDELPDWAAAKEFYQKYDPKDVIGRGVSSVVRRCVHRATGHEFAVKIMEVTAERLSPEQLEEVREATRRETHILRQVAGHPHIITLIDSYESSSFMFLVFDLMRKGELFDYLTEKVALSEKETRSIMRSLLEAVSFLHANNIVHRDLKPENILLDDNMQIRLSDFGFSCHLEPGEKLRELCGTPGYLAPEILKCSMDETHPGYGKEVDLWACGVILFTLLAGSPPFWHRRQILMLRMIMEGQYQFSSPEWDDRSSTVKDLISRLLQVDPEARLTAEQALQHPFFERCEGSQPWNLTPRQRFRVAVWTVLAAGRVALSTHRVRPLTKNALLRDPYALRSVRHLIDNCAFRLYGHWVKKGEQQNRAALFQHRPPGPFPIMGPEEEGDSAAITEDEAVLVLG

In patent publication US10266537B2, “3-acetylenyl-pyrazole-pyrimidine derivative, and preparation method therefor and uses thereof” (Si Chuan University, priority 2015, dated 2019):

Tests used:
PKA(h) = PKA(h) (Homo sapiens (Human), UniProt P17612); experiment: Kinase inhibition assay (KinaseProfiler, 33P-ATP); type: biochemical; conditions: read-out: The percentage of the remaining active protein
NEK11(h) = NEK11(h) (Homo sapiens (Human), UniProt Q8NG66); experiment: Kinase inhibition assay (KinaseProfiler, 33P-ATP); type: biochemical; conditions: read-out: The percentage of the remaining active protein
IRR(h) = IRR(h) (Homo sapiens (Human), UniProt P14616); experiment: Kinase inhibition assay (KinaseProfiler, 33P-ATP); type: biochemical; conditions: read-out: The percentage of the remaining active protein
Snk(h) = Snk(h) (Homo sapiens (Human), UniProt Q9NYY3); experiment: Kinase inhibition assay (KinaseProfiler, 33P-ATP); type: biochemical; conditions: read-out: The percentage of the remaining active protein
JAK2 = JAK2 (Homo sapiens (Human), UniProt O60674); experiment: Kinase inhibition assay (KinaseProfiler, 33P-ATP); type: biochemical; conditions: JAK2(h), read-out: The percentage of the remaining active protein
DAPK1(h) = DAPK1(h) (Homo sapiens (Human), UniProt P53355); experiment: Kinase inhibition assay (KinaseProfiler, 33P-ATP); type: biochemical; conditions: read-out: The percentage of the remaining active protein
JAK3(h) = JAK3(h) (Homo sapiens (Human), UniProt P52333); experiment: Kinase inhibition assay (KinaseProfiler, 33P-ATP); type: biochemical; conditions: read-out: The percentage of the remaining active protein
MELK(h) = MELK(h) (Homo sapiens (Human), UniProt Q14680); experiment: Kinase inhibition assay (KinaseProfiler, 33P-ATP); type: biochemical; conditions: read-out: The percentage of the remaining active protein
EphA1(h) = EphA1(h) (Homo sapiens (Human), UniProt P21709); experiment: Kinase inhibition assay (KinaseProfiler, 33P-ATP); type: biochemical; conditions: read-out: The percentage of the remaining active protein
JNK1α1(h) = JNK1α1(h) (Homo sapiens (Human), UniProt P45983); experiment: Kinase inhibition assay (KinaseProfiler, 33P-ATP); type: biochemical; conditions: read-out: The percentage of the remaining active protein
CLK1(h) = CLK1(h) (Homo sapiens (Human), UniProt P49759); experiment: Kinase inhibition assay (KinaseProfiler, 33P-ATP); type: biochemical; conditions: read-out: The percentage of the remaining active protein
PEK(h) = PEK(h) (Homo sapiens (Human), UniProt Q9NZJ5); experiment: Kinase inhibition assay (KinaseProfiler, 33P-ATP); type: biochemical; conditions: read-out: The percentage of the remaining active protein
Mnk2(h) = Mnk2(h) (Homo sapiens (Human), UniProt Q9HBH9); experiment: Kinase inhibition assay (KinaseProfiler, 33P-ATP); type: biochemical; conditions: read-out: The percentage of the remaining active protein
TrkA = TrkA (Homo sapiens (Human), UniProt P04629); experiment: Kinase inhibition assay (KinaseProfiler, 33P-ATP); type: biochemical; conditions: TrkA(h), read-out: The percentage of the remaining active protein
PKD2(h) = PKD2(h) (Homo sapiens (Human), UniProt Q9BZL6); experiment: Kinase inhibition assay (KinaseProfiler, 33P-ATP); type: biochemical; conditions: read-out: The percentage of the remaining active protein
PIP4K2a(h) = PIP4K2a(h) (Homo sapiens (Human), UniProt P48426); experiment: Kinase inhibition assay (KinaseProfiler, 33P-ATP); type: biochemical; conditions: read-out: The percentage of the remaining active protein
Fgr = Fgr (Homo sapiens (Human), UniProt P09769); experiment: Kinase inhibition assay (KinaseProfiler, 33P-ATP); type: biochemical; conditions: Fgr(h), read-out: The percentage of the remaining active protein
IRAK1(h) = IRAK1(h) (Homo sapiens (Human), UniProt P51617); experiment: Kinase inhibition assay (KinaseProfiler, 33P-ATP); type: biochemical; conditions: read-out: The percentage of the remaining active protein
PRK2(h) = PRK2(h) (Homo sapiens (Human), UniProt Q16513); experiment: Kinase inhibition assay (KinaseProfiler, 33P-ATP); type: biochemical; conditions: read-out: The percentage of the remaining active protein
Hck = Hck (Homo sapiens (Human), UniProt P08631); experiment: Kinase inhibition assay (KinaseProfiler, 33P-ATP); type: biochemical; conditions: Hck(h), read-out: The percentage of the remaining active protein
JNK2α2(h) = JNK2α2(h) (Homo sapiens (Human), UniProt P45984); experiment: Kinase inhibition assay (KinaseProfiler, 33P-ATP); type: biochemical; conditions: read-out: The percentage of the remaining active protein
Lyn = Lyn (Homo sapiens (Human), UniProt P07948); experiment: Kinase inhibition assay (KinaseProfiler, 33P-ATP); type: biochemical; conditions: Lyn(h), read-out: The percentage of the remaining active protein
ARK5(h) = ARK5(h) (Homo sapiens (Human), UniProt O60285); experiment: Kinase inhibition assay (KinaseProfiler, 33P-ATP); type: biochemical; conditions: read-out: The percentage of the remaining active protein
LIMK1 = LIMK1 (Homo sapiens (Human), UniProt P53667); experiment: biochemical; conditions: read-out: The percentage of the remaining active protein
MLCK(h) = experiment: Kinase inhibition assay (KinaseProfiler, 33P-ATP); type: biochemical, human; conditions: 10 μM
SIK(h) = SIK(h) (Homo sapiens (Human), UniProt P57059); experiment: Kinase inhibition assay (KinaseProfiler, 33P-ATP); type: biochemical; conditions: read-out: The percentage of the remaining active protein
EphB1 = EphB1 (Homo sapiens (Human), UniProt P54762); experiment: Kinase inhibition assay (KinaseProfiler, 33P-ATP); type: biochemical; conditions: EphB1(h), read-out: The percentage of the remaining active protein
CaMKK2(h) = CaMKK2(h) (Homo sapiens (Human), UniProt Q96RR4); experiment: Kinase inhibition assay (KinaseProfiler, 33P-ATP); type: biochemical; conditions: read-out: The percentage of the remaining active protein
Rsk1(h) = Rsk1(h) (Homo sapiens (Human), UniProt Q15418); experiment: Kinase inhibition assay (KinaseProfiler, 33P-ATP); type: biochemical; conditions: read-out: The percentage of the remaining active protein
Txk = Txk (Homo sapiens (Human), UniProt P42681); experiment: Kinase inhibition assay (KinaseProfiler, 33P-ATP); type: biochemical; conditions: Txk(h), read-out: The percentage of the remaining active protein
MSSK1(h) = MSSK1(h) (Homo sapiens (Human), UniProt Q9UPE1); experiment: Kinase inhibition assay (KinaseProfiler, 33P-ATP); type: biochemical; conditions: read-out: The percentage of the remaining active protein
MEK1(h) = MEK1(h) (Homo sapiens (Human), UniProt Q02750); experiment: Kinase inhibition assay (KinaseProfiler, 33P-ATP); conditions: read-out: The percentage of the remaining active protein
GCK(h) = GCK(h) (Homo sapiens (Human), UniProt Q12851); experiment: Kinase inhibition assay (KinaseProfiler, 33P-ATP); type: biochemical; conditions: read-out: The percentage of the remaining active protein
LOK(h) = LOK(h) (Homo sapiens (Human), UniProt O94804); experiment: Kinase inhibition assay (KinaseProfiler, 33P-ATP); type: biochemical; conditions: read-out: The percentage of the remaining active protein
Lck = Lck (Homo sapiens (Human), UniProt P06239); experiment: Kinase inhibition assay (KinaseProfiler, 33P-ATP); type: biochemical; conditions: Lck(h), read-out: The percentage of the remaining active protein
BRK = BRK (Homo sapiens (Human), UniProt Q13882); experiment: Kinase inhibition assay (KinaseProfiler, 33P-ATP); type: biochemical; conditions: BRK(h), read-out: The percentage of the remaining active protein
LRRK2(h) = LRRK2(h) (Homo sapiens (Human), UniProt Q5S007); experiment: Kinase inhibition assay (KinaseProfiler, 33P-ATP); type: biochemical; conditions: read-out: The percentage of the remaining active protein
MRCKα(h) = MRCKα(h) (Homo sapiens (Human), UniProt Q5VT25); experiment: Kinase inhibition assay (KinaseProfiler, 33P-ATP); type: biochemical; conditions: read-out: The percentage of the remaining active protein
MLK1(h) = MLK1(h) (Homo sapiens (Human), UniProt P80192); experiment: Kinase inhibition assay (KinaseProfiler, 33P-ATP); type: biochemical; conditions: read-out: The percentage of the remaining active protein
ACK1 = ACK1 (Homo sapiens (Human), UniProt Q07912); experiment: Kinase inhibition assay (KinaseProfiler, 33P-ATP); type: biochemical; conditions: ACK1(h), read-out: The percentage of the remaining active protein
JNK3(h) = JNK3(h) (Homo sapiens (Human), UniProt P53779); experiment: Kinase inhibition assay (KinaseProfiler, 33P-ATP); type: biochemical; conditions: read-out: The percentage of the remaining active protein
NLK(h) = NLK(h) (Homo sapiens (Human), UniProt Q9UBE8); experiment: Kinase inhibition assay (KinaseProfiler, 33P-ATP); type: biochemical; conditions: read-out: The percentage of the remaining active protein
KDR = KDR (Homo sapiens (Human), UniProt P35968); experiment: Kinase inhibition assay (KinaseProfiler, 33P-ATP); type: biochemical; conditions: KDR(h), read-out: The percentage of the remaining active protein
p70S6K(h) = p70S6K(h) (Homo sapiens (Human), UniProt P23443); experiment: Kinase inhibition assay (KinaseProfiler, 33P-ATP); type: biochemical; conditions: read-out: The percentage of the remaining active protein
PRAK(h) = PRAK(h) (Homo sapiens (Human), UniProt Q8IW41); experiment: Kinase inhibition assay (KinaseProfiler, 33P-ATP); type: biochemical; conditions: read-out: The percentage of the remaining active protein
DCAMKL2(h) = DCAMKL2(h) (Homo sapiens (Human), UniProt Q8N568); experiment: Kinase inhibition assay (KinaseProfiler, 33P-ATP); type: biochemical; conditions: read-out: The percentage of the remaining active protein
JAK1 = JAK1 (Homo sapiens (Human), UniProt P23458); experiment: Kinase inhibition assay (KinaseProfiler, 33P-ATP); type: biochemical; conditions: JAK1(h), read-out: The percentage of the remaining active protein
TAO1(h) = TAO1(h) (Homo sapiens (Human), UniProt Q7L7X3); experiment: Kinase inhibition assay (KinaseProfiler, 33P-ATP); type: biochemical; conditions: read-out: The percentage of the remaining active protein
Fms(h) = Fms(h) (Homo sapiens (Human), UniProt P07333); experiment: Kinase inhibition assay (KinaseProfiler, 33P-ATP); type: biochemical; conditions: read-out: The percentage of the remaining active protein
DDR1 = DDR1 (Homo sapiens (Human), UniProt Q08345); experiment: Kinase inhibition assay (KinaseProfiler, 33P-ATP); type: biochemical; conditions: DDR1(h), read-out: The percentage of the remaining active protein
PhKγ2(h) = PhKγ2(h) (Homo sapiens (Human), UniProt P15735); experiment: Kinase inhibition assay (KinaseProfiler, 33P-ATP); type: biochemical; conditions: read-out: The percentage of the remaining active protein
GRK1(h) = GRK1(h) (Homo sapiens (Human), UniProt Q15835); experiment: Kinase inhibition assay (KinaseProfiler, 33P-ATP); type: biochemical; conditions: read-out: The percentage of the remaining active protein
TAK1 = TAK1 (Homo sapiens (Human), UniProt O43318); experiment: Kinase inhibition assay (KinaseProfiler, 33P-ATP); type: biochemical; conditions: TAK1(h), read-out: The percentage of the remaining active protein
CSK = CSK (Homo sapiens (Human), UniProt P41240); experiment: Kinase inhibition assay (KinaseProfiler, 33P-ATP); type: biochemical; conditions: CSK(h), read-out: The percentage of the remaining active protein
DMPK(h) = DMPK(h) (Homo sapiens (Human), UniProt Q09013); experiment: Kinase inhibition assay (KinaseProfiler, 33P-ATP); type: biochemical; conditions: read-out: The percentage of the remaining active protein

Cc1ccc(NC(=O)c2cccc(C(F)(F)F)c2)cc1C#Cc1nn([C@H]2CC[C@H](O)CC2)c2ncnc(N)c12 [Compound 100]
remaining activity at 10 µM (PKA(h)): 49% | remaining activity at 10 µM (NEK11(h)): 76% | remaining activity at 10 µM (IRR(h)): 85% | remaining activity at 10 µM (Snk(h)): 100% | remaining activity at 10 µM (JAK2): 7% | remaining activity at 10 µM (DAPK1(h)): 101% | remaining activity at 10 µM (JAK3(h)): 7% | remaining activity at 10 µM (MELK(h)): 30% | remaining activity at 10 µM (EphA1(h)): 0% | remaining activity at 10 µM (JNK1α1(h)): 79% | remaining activity at 10 µM (CLK1(h)): 67% | remaining activity at 10 µM (PEK(h)): 46% | remaining activity at 10 µM (Mnk2(h)): 84% | remaining activity at 10 µM (TrkA): 66% | remaining activity at 10 µM (PKD2(h)): 115% | remaining activity at 10 µM (PIP4K2a(h)): 101% | remaining activity at 10 µM (Fgr): 0% | remaining activity at 10 µM (IRAK1(h)): 84% | remaining activity at 10 µM (PRK2(h)): 134% | remaining activity at 10 µM (Hck): -1% | remaining activity at 10 µM (JNK2α2(h)): 12% | remaining activity at 10 µM (Lyn): 1% | remaining activity at 10 µM (ARK5(h)): 115% | remaining activity at 10 µM (LIMK1): 20% | The percentage of the remaining active protein (MLCK(h)): 100% | remaining activity at 10 µM (SIK(h)): 17% | remaining activity at 10 µM (EphB1): -3% | remaining activity at 10 µM (CaMKK2(h)): 90% | remaining activity at 10 µM (Rsk1(h)): 60% | remaining activity at 10 µM (Txk): -1% | remaining activity at 10 µM (MSSK1(h)): 68% | remaining activity at 10 µM (MEK1(h)): 72% | remaining activity at 10 µM (GCK(h)): 29% | remaining activity at 10 µM (LOK(h)): 5% | remaining activity at 10 µM (Lck): 0% | remaining activity at 10 µM (BRK): 46% | remaining activity at 10 µM (LRRK2(h)): 49% | remaining activity at 10 µM (MRCKα(h)): 101% | remaining activity at 10 µM (MLK1(h)): 10% | remaining activity at 10 µM (ACK1): 8% | remaining activity at 10 µM (JNK3(h)): 26% | remaining activity at 10 µM (NLK(h)): 63% | remaining activity at 10 µM (KDR): 5% | remaining activity at 10 µM (p70S6K(h)): 30% | remaining activity at 10 µM (PRAK(h)): 101% | remaining activity at 10 µM (DCAMKL2(h)): 120% | remaining activity at 10 µM (JAK1): 0% | remaining activity at 10 µM (TAO1(h)): 15% | remaining activity at 10 µM (Fms(h)): 0% | remaining activity at 10 µM (DDR1): 2% | remaining activity at 10 µM (PhKγ2(h)): 117% | remaining activity at 10 µM (GRK1(h)): 88% | remaining activity at 10 µM (TAK1): 6% | remaining activity at 10 µM (CSK): -4% | remaining activity at 10 µM (DMPK(h)): 62%
